Experimental data: PubChem BioAssay AID1224831 (NIAID, 2016)
Purpose: 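Confirming genome-wide hits on LPS-triggered TNF-alpha induction with independent siRNA sequences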 (follow-up of hits). Cell system: human THP-1 B5 monocytic leukaemia cells carrying a TNF promoter luciferase reporter, made macrophage-like with PMA. Knock-down reagent: single siRNA against human genes, 50 nM. Timing: about 68 h of knock-down, then 4 h LPS. Challenge: LPS (Salmonella minnesota, TLR-grade) at 10 ng/ml for 4 h; PMA 5 ng/ml present during knock-down. Read-out: 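Firefly to renilla luciferase ratio of a TNF promoter reporter after 4 h LPS, scaled to plate median, turned into robust z-score, averaged over replicates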. Reading the numbers: TNF reporter z-score: higher = stronger LPS-induced TNF reporter signal; z-score, median over gene's siRNAs: higher = stronger TNF reporter signal across the gene's siRNAs. Hit rule: 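Two-sided call: reduced or raised TNF reporter signal counts as active once mean z reaches about -1 or below, or about 1.5 or above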. Calls: active = changed TNF reporter (either direction); inactive = little change.
Shown is one part, drawn at random, of about 3,500 reagents tested. Of all reagents, 731 (21%) got an active call. 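Active means either lowered or raised reporter signal; the gene-median score did not drive the per-siRNA calls.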 A number with no mark means an inactive call. No sequences are given here.

How did the screen score MRPS10 [SID315485799]?
TNF reporter z-score, replicate mean: 2.15 (active); z-score, median over gene's siRNAs: 0.175

With MRPS10 [SID315485800], what was measured?
TNF reporter z-score, replicate mean: 0.27; z-score, median over gene's siRNAs: 0.175

For MRPS10 [SID315485801], what does the deposit list?
TNF reporter z-score, replicate mean: -0.82; z-score, median over gene's siRNAs: 0.175

For MRPS10 [SID315485802], what was measured?
TNF reporter z-score, replicate mean: -0.07; z-score, median over gene's siRNAs: 0.175

What did the screen give for MRPS10 [SID315485803]?
TNF reporter z-score, replicate mean: 3.94 (active); z-score, median over gene's siRNAs: 0.175

What is on record for MRPS10 [SID315485804]?
TNF reporter z-score, replicate mean: 0.08; z-score, median over gene's siRNAs: 0.175

Which result is listed for TMEM203 [SID315487353]?
TNF reporter z-score, replicate mean: 1.29; z-score, median over gene's siRNAs: 0.465

How did the screen score TMEM203 [SID315487354]?
TNF reporter z-score, replicate mean: 0.23; z-score, median over gene's siRNAs: 0.465

What is on record for TMEM203 [SID315487355]?
TNF reporter z-score, replicate mean: 0.9; z-score, median over gene's siRNAs: 0.465

Which result is listed for TMEM203 [SID315487356]?
TNF reporter z-score, replicate mean: -0.86; z-score, median over gene's siRNAs: 0.465

What is on record for TMEM203 [SID315487357]?
TNF reporter z-score, replicate mean: -0.32; z-score, median over gene's siRNAs: 0.465

How did the screen score TMEM203 [SID315487358]?
TNF reporter z-score, replicate mean: 0.7; z-score, median over gene's siRNAs: 0.465

With PLEKHA4 [SID315486111], what does the deposit list?
TNF reporter z-score, replicate mean: 0.49; z-score, median over gene's siRNAs: 0.4

With PLEKHA4 [SID315486112], what does the deposit list?
TNF reporter z-score, replicate mean: -1.22 (active); z-score, median over gene's siRNAs: 0.4

For PLEKHA4 [SID315486113], what was measured?
TNF reporter z-score, replicate mean: -0.89; z-score, median over gene's siRNAs: 0.4

Which result is listed for PLEKHA4 [SID315486114]?
TNF reporter z-score, replicate mean: 2.94 (active); z-score, median over gene's siRNAs: 0.4

For PLEKHA4 [SID315486115], what was measured?
TNF reporter z-score, replicate mean: 0.31; z-score, median over gene's siRNAs: 0.4

With PLEKHA4 [SID315486116], what does the deposit list?
TNF reporter z-score, replicate mean: 1.2; z-score, median over gene's siRNAs: 0.4

Which result is listed for HSPH1 [SID315483516]?
TNF reporter z-score, replicate mean: 2.9 (active); z-score, median over gene's siRNAs: -0.345

With HSPH1 [SID315483517], what was measured?
TNF reporter z-score, replicate mean: -0.31; z-score, median over gene's siRNAs: -0.345

With HSPH1 [SID315483518], what does the deposit list?
TNF reporter z-score, replicate mean: 0.71; z-score, median over gene's siRNAs: -0.345

What is on record for HSPH1 [SID315483519]?
TNF reporter z-score, replicate mean: -1.61 (active); z-score, median over gene's siRNAs: -0.345

For HSPH1 [SID315483520], what was measured?
TNF reporter z-score, replicate mean: -0.38; z-score, median over gene's siRNAs: -0.345

Which result is listed for HSPH1 [SID315483521]?
TNF reporter z-score, replicate mean: -0.66; z-score, median over gene's siRNAs: -0.345

2 entries from above, set out differently.
PLEKHA4 [SID315486113]
- TNF reporter z-score, replicate mean: -0.89
- z-score, median over gene's siRNAs: 0.4

PLEKHA4 [SID315486114]
- TNF reporter z-score, replicate mean: 2.94 (active)
- z-score, median over gene's siRNAs: 0.4
